This note sets out measurements from article PMC9816117.

Construct, isoform or probe ends are uncertain for at least one entry.

The subject of data set [1] is 6xHis-TAL20Xam668 (Xanthomonas phaseoli pv. manihotis (Xam668)). In words: EMSA. The note with it: LightShift Chemiluminescent EMSA Kit per manufacturer (buffer, salt, pH not stated); 0-1000 fmol TAL20; room temperature 20 min (competitor pre-incubated 20 min); recombinant protein; protein details: N-terminal 6xHis (pDEST17); label: biotin 3' end (probe).
Data set [2] shares this test system. As to the kind of experiment: competition with a labelled probe. To be noted: excess unlabeled oligo against labeled unmethylated EBE; LightShift Chemiluminescent EMSA Kit per manufacturer (buffer, salt, pH not stated); 0-1000 fmol TAL20; room temperature 20 min (competitor pre-incubated 20 min); recombinant protein; protein details: N-terminal 6xHis (pDEST17).

“CCCTATATAAACGCTTCTCGCCCATCCATCATT (double strand) [MeSWEET10a EBE, unmethylated]”: in data set [1], the binding result is “binds”. With “CCCTATATAAACGCTTCTCGCCCATCCATCATT (double strand) [MeSWEET10a EBE, unmethylated, unlabeled competitor]”, the binding result in data set [2] is “binds”.
